In the supplement of paper PMC4604168 (melanoma cell lines):
Some of the results follow. Repeats are few or missing, and single values can be far off.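 Cells were imaged in 1,536-well plates, and nuclei stained with an antibody against cleaved PARP were counted against all DNA-stained nuclei to give the apoptosis fraction. Screening doses were chosen to leave most cells alive, and resting and induced cleaved-PARP levels differ strongly between cell lines.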

What was measured:
Assay in all cases: cleaved PARP positive nuclei fraction relative to DMSO control; melanoma cells; higher = more apoptosis
Settings in all cases: library dose: low library concentration; 72 h
COLO792 = test system: COLO792
COLO800 = test system: COLO800
COLO829 = test system: COLO829
G361 = test system: G361
IPC-298 = test system: IPC-298
IST-MEL1 = test system: IST-MEL1
LB2518-MEL = test system: LB2518-MEL
LOXIMVI = test system: LOXIMVI
MEL-HO = test system: MEL-HO
MZ2-MEL = test system: MZ2-MEL
MeWo = test system: MeWo
RPMI7951 = test system: RPMI7951
RVH-421 = test system: RVH-421
SkMel28 = test system: SkMel28
SkMel2 = test system: SkMel2
SkMel30 = test system: SkMel30
SkMel5 = test system: SkMel5
UACC257 = test system: UACC257
UACC62 = test system: UACC62

Structure (SMILES)	cleaved PARP positive nuclei fraction (COLO792) [%]	cleaved PARP positive nuclei fraction (COLO800) [%]	cleaved PARP positive nuclei fraction (COLO829) [%]	cleaved PARP positive nuclei fraction (G361) [%]	cleaved PARP positive nuclei fraction (IPC-298) [%]	cleaved PARP positive nuclei fraction (IST-MEL1) [%]	cleaved PARP positive nuclei fraction (LB2518-MEL) [%]	cleaved PARP positive nuclei fraction (LOXIMVI) [%]	cleaved PARP positive nuclei fraction (MEL-HO) [%]	cleaved PARP positive nuclei fraction (MZ2-MEL) [%]	cleaved PARP positive nuclei fraction (MeWo) [%]	cleaved PARP positive nuclei fraction (RPMI7951) [%]	cleaved PARP positive nuclei fraction (RVH-421) [%]	cleaved PARP positive nuclei fraction (SkMel28) [%]	cleaved PARP positive nuclei fraction (SkMel2) [%]	cleaved PARP positive nuclei fraction (SkMel30) [%]	cleaved PARP positive nuclei fraction (SkMel5) [%]	cleaved PARP positive nuclei fraction (UACC257) [%]	cleaved PARP positive nuclei fraction (UACC62) [%]
OCc1c[nH]c2ccccc12 [Indole-3-carbinol] + NC(=O)Nc1cc(-c2cccc(F)c2)sc1C(=O)N[C@H]1CCCNC1 [AZD7762] (first compound 0.8 µM, partner dose 0.02 µM)	187	73	141	88.2	83.5	77.5	74.3	55.9	31	94.4	90.8	231	83.4	69.7	138	60.7	120	142	202
Cn1nnc2c(C(N)=O)ncn2c1=O [temozolomide] + COc1cc2c(Oc3ccc4[nH]c(C)cc4c3F)ncnc2cc1OCCCN1CCCC1 [cediranib] (first compound 2 µM, partner dose 0.4 µM)	86.6	82	75.5	105	105	309	177	42.3	76.6	97.7	32.7	194	195	52.6	69.3	275	71.7	206	108
COc1cc(Nc2ncc(F)c(Nc3ccc4c(n3)NC(=O)C(C)(C)O4)n2)cc(OC)c1OC [Tamatinib] + OCCn1cc(-c2cnc3nnn(Cc4ccc5ncccc5c4)c3n2)cn1 [PF04217903] (first compound 0.4 µM, partner dose 1 µM)	296	93.7	211	129	76.1	49.6	212	114	69.7	165	56.5	149	189	90.6	167	130	110	97.9	147
C[C@@H]1CCN(C(=O)CC#N)C[C@@H]1N(C)c1ncnc2[nH]ccc12 + O=C(O)c1ccc(-c2c[nH]c3ncc(-c4ccccc4)cc23)cc1C1CCCC1 [GSK650394] (first compound 1 µM, partner dose 0.16 µM)	214	394	147	84	134	154	88	50.6	150	161	215	90.8	44	69.3	163	133	45.2	72	67.3
Cn1c(Nc2ccc(C(F)(F)F)cc2)nc2cc(Oc3ccnc(-c4ncc(C(F)(F)F)[nH]4)c3)ccc21 + O=C(O)c1ccc(-c2c[nH]c3ncc(-c4ccccc4)cc23)cc1C1CCCC1 [GSK650394] (first compound 0.08 µM, partner dose 0.16 µM)	571	130	145	156	137	73.7	411	90.8	504	149	46.1	191	88.8	72.6	95	148	97.7	669	318
C#Cc1cccc(Nc2ncnc3cc(OCCOC)c(OCCOC)cc23)c1 [erlotinib] + CC1(C)NC(=O)N(c2ccc([N+](=O)[O-])c(C(F)(F)F)c2)C1=O [nilutamide] (first compound 0.8 µM, partner dose 1 µM)	94.6	50.9	57.8	35.2	94.6	45.7	85.7	27.7	91.7	126	79.8	33.7	96.1	71.5	62.8	70.1	64.3	90.1	102
CC1(C)NC(=O)N(c2ccc([N+](=O)[O-])c(C(F)(F)F)c2)C1=O [nilutamide] + CN(NC(=O)CC(=O)NN(C)C(=S)c1ccccc1)C(=S)c1ccccc1 [STA4783] (first compound 1 µM, partner dose 0.006 µM)	105	137	231	161	196	97.1	377	43.7	626	201	197	156	60	164	40.9	138	37.5	210	100
OCc1c[nH]c2ccccc12 [Indole-3-carbinol] + CC1(C)NC(=O)N(c2ccc([N+](=O)[O-])c(C(F)(F)F)c2)C1=O [nilutamide] (first compound 0.8 µM, partner dose 1 µM)	89	96	190	91.5	93	149	97.7	60.8	184	106	130	55.4	131	116	136	65	100	144	141
COCC[n+]1c2c(n(Cc3cnccn3)c1C)C(=O)c1ccccc1C2=O + COc1cc2c(Oc3ccc4[nH]c(C)cc4c3F)ncnc2cc1OCCCN1CCCC1 [cediranib] (first compound 0.0004 µM, partner dose 0.4 µM)	191	56.2	104	102	131	80.2	73.7	62.2	63.8	117	493	51.3	46.6	28.5	101	68.4	256	216	173
Cn1c(Nc2ccc(C(F)(F)F)cc2)nc2cc(Oc3ccnc(-c4ncc(C(F)(F)F)[nH]4)c3)ccc21 + CC1(C)NC(=O)N(c2ccc([N+](=O)[O-])c(C(F)(F)F)c2)C1=O [nilutamide] (first compound 0.08 µM, partner dose 1 µM)	459	58	263	151	170	187	197	154	179	430	82.4	79.8	103	186	132	121	141	320	229
Nc1cccc2c1CN(C1CCC(=O)NC1=O)C2=O (stereo not drawn) [lenalidomide] + NCC(=O)Nc1ccc(-n2nc(C(F)(F)F)cc2-c2ccc3c(ccc4ccccc43)c2)cc1 [OSU03012] (first compound 1 µM, partner dose 1 µM)	112	55.3	200	124	51.6	206	93.2	131	112	159	177	46	128	145	164	130	147	96.1	157
CC1(C)NC(=O)N(c2ccc([N+](=O)[O-])c(C(F)(F)F)c2)C1=O [nilutamide] + O=C(O)c1ccc(-c2c[nH]c3ncc(-c4ccccc4)cc23)cc1C1CCCC1 [GSK650394] (first compound 1 µM, partner dose 0.16 µM)	50	148	183	141	144	61.7	118	48.6	53.8	122	274	68.5	88.1	65	141	67.8	39.4	74.1	83
CC1(C)NC(=O)N(c2ccc([N+](=O)[O-])c(C(F)(F)F)c2)C1=O [nilutamide] + Cn1cncc1[C@@](N)(c1ccc(Cl)cc1)c1ccc2c(c1)c(-c1cccc(Cl)c1)cc(=O)n2C [tipifarnib] (first compound 1 µM, partner dose 0.01 µM)	138	43	99.4	103	105	84.2	215	49.6	137	110	78.1	41.4	191	90.6	63	83.2	215	46	201
Cn1c(Nc2ccc(C(F)(F)F)cc2)nc2cc(Oc3ccnc(-c4ncc(C(F)(F)F)[nH]4)c3)ccc21 + COc1cc2c(Oc3ccc4[nH]c(C)cc4c3F)ncnc2cc1OCCCN1CCCC1 [cediranib] (first compound 0.08 µM, partner dose 0.4 µM)	209	37.1	157	192	210	103	191	39.9	119	278	49	113	110	57.1	156	118	95.6	736	332
Nc1cccc2c1CN(C1CCC(=O)NC1=O)C2=O (stereo not drawn) [lenalidomide] + Cc1ccc(NC(=O)c2cccc(N(C)C)c2)cc1NC(=O)c1ccc(O)cc1 [ZM336372] (first compound 1 µM, partner dose 2 µM)	90	77.9	104	126	139	107	54.2	49.1	65.8	92.9	102	199	62.2	365	75.8	81.9	67	121	51.1
CC1(C)NC(=O)N(c2ccc([N+](=O)[O-])c(C(F)(F)F)c2)C1=O [nilutamide] + C[C@@H]1CCN(C(=O)CC#N)C[C@@H]1N(C)c1ncnc2[nH]ccc12 [CP690550] (first compound 1 µM, partner dose 1 µM)	82.3	71.2	74.9	176	44.4	625	40.9	29.8	34.8	175	89.8	38.1	68.5	83.8	218	90.7	55.7	280	103
Cn1nnc2c(C(N)=O)ncn2c1=O [temozolomide] + NC(=O)Nc1cc(-c2cccc(F)c2)sc1C(=O)N[C@H]1CCCNC1 [AZD7762] (first compound 2 µM, partner dose 0.02 µM)	95.3	106	121	49.4	95.5	60.2	69.3	233	64.8	258	158	56.8	82.1	54.1	57.7	208	63.5	58.8	28
